The text below walks through data of patent publication US9161988B2 (Angiochem Inc., priority 2009, dated 2015).

This data set in a line: general procedure: Fmoc solid-phase peptide synthesis; Rink amide MBHA resin (with Nle) (0.40 mmol/g); HCTU/NMM. Conditions: whole synthesis.

SATP-AN2Cys-NH2: for the setting “Waters Acquity HPLC, BEH phenyl column, detection at 229 nm, scale of the general procedure 100-μmol”, the “final HPLC purity” value is given as “purity>95%”. Under “scale 100 umol”, this substance showed an isolated yield of 26%.
